Among the data in PubChem BioAssay AID493014 (National Center for Advancing Translational Sciences (NCATS), 2011) are AC50 values, retold here.

Molecules are shown by their SMILES. This is one part of the list. Shown are side measurements of this screen, not its main read-out; they come without a call. The list favours compounds with an active or inconclusive main result. Potencies come from curve fits of mixed quality, noted in brackets.

This test can be described thus: qHTS Assay to Find Inhibitors of Chronic Active B-Cell Receptor Signaling. As to conditions: ABC-DLBCL IkBa-CBG/CBR reporter, luminescence ratio (green luciferase fused to IkBa over red control in TMD8 lymphoma cells), 4 h. The procedure, abridged: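 Doxycycline induced both beetle luciferases in TMD8 lymphoma cells; IKK-driven degradation limits the IkappaBalpha-fused green signal, while red luminescence normalises for cell number and nonspecific effects. Compounds tested up to 46 uM, 4 hrs.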
(Quantitative high-throughput screening tests each substance at several concentrations.)

Where [1] appears, read: measured here: CBR red luminescence, cell number.
[2] abbreviates: measured here: IkBa-CBG green luminescence.

For the compound `O=C(O)CC/C(=N\NC(=O)c1ccccc1)c1cccs1`, the AC50 under setting [1] was 5.01 µM [falling, partial curve].

With `CC(C)c1cc(CN2CCN(Cc3ccc(F)c(F)c3)C(CCO)C2)[nH]n1` (stereo not drawn), under setting [1], the AC50 is 6.31 µM [falling, single point].

For `C=CCC[C@H](Cc1ccc(F)cc1)C(=O)OC[C@H](Cc1c[nH]c2ccccc12)NC(=O)[C@@H](CC=C)CC(=O)N[C@H](CO)Cc1ccccc1`, under setting [1], the AC50 was 18.4 µM [falling, partial curve, poor fit].

As to `CCN(CC)CCn1c(SCC(=O)Nc2ccc(F)cc2)nc2c(sc3ccccc32)c1=O`, the AC50 under setting [1] was 7.08 µM [falling, partial curve].

As to `CCC/C(=N\NC(=O)c1cccc(C)c1)c1ccccc1`, the AC50 under setting [1] was 14.6 µM [falling, partial curve].

As for `Cc1ccc(SCCNC(=O)c2ccc(C)c(S(=O)(=O)Nc3cccc(C)c3)c2)cc1`, under setting [1], the AC50 is 28.2 µM [falling, single point].

For the compound `C/C(=N\NC(=O)c1csc(C)c1C)c1ccco1`, the AC50 under setting [1] is 18.4 µM [falling, partial curve, poor fit].

As for `Cc1ccccc1Nc1cc(C(=O)NCCCN2CCN(c3cccc(Cl)c3)CC2)c2ccccc2n1`, the AC50 under setting [1] is 10 µM [falling, partial curve, poor fit].

Consider `CCCCc1ccc(-c2csc(/C(C#N)=C/c3ccco3)n2)cc1`, for which, under setting [1], the AC50 was 8.2 µM [rising, partial curve, poor fit].

Regarding `CC(C)(C)c1ccc(C(=O)NCC(=O)N2CCC3(CC2)NCCc2[nH]cnc23)cc1`, the AC50 under setting [1] was 3.16 µM [falling, partial curve, poor fit].

On to `O=C(Nc1cccc(Cl)c1)C1C2CCC3C(CCC21)C3(Cl)Cl` (stereo not drawn), for which the AC50 is 8.2 µM [falling, partial curve, poor fit] under setting [1] and 14.6 µM [rising, partial curve, poor fit] under setting [2].

`COc1ccc(-c2cc(C(=O)N/N=C/c3ccc(OC)c(COCC(F)(F)C(F)F)c3)c3ccccc3n2)c(OC)c1`: under setting [1], the AC50 was 0.447 µM [rising, full curve, poor fit].

Take `CCOC(=O)C1=NN(c2ccccc2C)C2=NC(C)=C(C(=O)OC)C(c3cccs3)N12` (stereo not drawn): the AC50 by setting is: under setting [1], 10.3 µM [falling, partial curve]; under setting [2], 32.6 µM [rising, partial curve, poor fit].

In the case of `Cc1ccc(C)c(CN2CCC(n3nccc3NC(=O)CCCc3ccccc3)CC2)c1`, the AC50 under setting [1] was 3.55 µM [rising, single point].

Take `COc1ccc(CCNC(=O)c2cccs2)cc1`: the AC50 under setting [1] is 15.8 µM [falling, single point].

Regarding `CCS(=O)(=O)N1CCC(C(=O)Oc2ccccc2Cl)CC1`, under setting [1], the AC50 is 22.4 µM [rising, partial curve, poor fit].

`Cc1cc2cc(CN(Cc3cccs3)C(=S)NCc3ccco3)c(=O)[nH]c2cc1C`: the AC50 under setting [1] was 6.51 µM [falling, partial curve, poor fit].

In the case of `O=C(Oc1oc(-c2ccco2)nc1C=Nc1ccc(Cl)cc1)c1ccco1`, under setting [1], the AC50 was 11.2 µM [falling, partial curve, poor fit].

As for `Cn1cc(CN2CCN(CCO)CC2)c(-c2ccc(Oc3ccccc3)cc2)n1`, the AC50 under setting [1] was 14.1 µM [rising, single point].

`Cn1nccc1C(=O)NC1CCCc2c1cnn2-c1ccc(F)cc1F` (stereo not drawn): the half-maximal activity concentration (AC50) under setting [1] is 0.562 µM [rising, full curve, poor fit].

For the compound `COc1ccc(-c2cn[nH]c2-c2ccc(OCC(=O)NN)cc2O)cc1OC`, the AC50 under setting [1] was 35.5 µM [falling, single point].

As for `CC(=O)c1cccc(NC(=O)C(C)N2CCc3ccccc3C2)c1` (stereo not drawn), the AC50 under setting [1] was 31.6 µM [rising, single point].

Take `O=C(/C(=C/c1ccc(Cl)cc1)c1nc2ccccc2[nH]1)c1ccccc1`: the AC50 runs as follows: under setting [1], 5.62 µM [rising, single point]; under setting [2], 3.55 µM [falling, partial curve, poor fit].

On to `OCCNc1nc2ccccc2n1-c1ncnc2sc3c(c12)CCC3`, for which the AC50 under setting [1] is 6.51 µM [rising, single point].

`COc1ccc(CCNC(=O)c2ccccc2)cc1`: the AC50 under setting [1] was 11.2 µM [falling, partial curve].

In the case of `COc1ccc(CCNC(=O)CCSCc2ccccc2F)cc1OC`, the AC50 under setting [1] is 0.1 µM [rising, full curve, poor fit].

Take `O=C(C=C=Nc1ccccc1)C(=O)N=C=Cc1ccccc1`: the AC50 under setting [1] was 11.2 µM [falling, single point].

Regarding `COc1ccc(C2CC(C(F)(F)F)n3nc(CO)c(Cl)c3N2)cc1OC` (stereo not drawn), the AC50 under setting [1] is 35.5 µM [rising, single point].

For the compound `Cc1ccc(C(=O)COC(=O)c2nc(Cl)ccc2Cl)cc1`, the AC50 under setting [1] is 7.31 µM [rising, single point].

As for `O=C(NNC(=S)Nc1ccccc1C(F)(F)F)c1cccnc1`, under setting [1], the AC50 was 14.1 µM [falling, partial curve, poor fit].

For the compound `O=C(Nc1ccc(Cl)cn1)C1CCN(c2ncnc3c2nc2n3CCCCC2)CC1`, the AC50 under setting [2] is 15.8 µM [rising, single point].

Turning to `NC(=O)c1ccc(Oc2ccc3ccc(=O)oc3c2)c([N+](=O)[O-])c1`, the AC50 under setting [1] was 15.8 µM [falling, single point].

As to `Cc1ccc2c(c1)c1c3n2CCN(C(=O)C2CC2)C3CCC1` (stereo not drawn), the AC50 under setting [1] is 29.1 µM [rising, single point] and the AC50 under setting [2] is 32.6 µM [falling, partial curve, poor fit].

For `CC(C)OC(=O)c1ccc(NC(=O)c2ccccc2)cc1`, the AC50 under setting [1] is 0.517 µM [rising, full curve, poor fit].

With `CS(=O)(=O)c1ccc(S(=O)CC(=O)OCc2ccccc2)c([N+](=O)[O-])c1` (stereo not drawn), the AC50 under setting [1] is 15.8 µM [falling, partial curve].

As to `CC1=C/C(=N\NC(=O)c2ccc(O)cc2)CC1`, the AC50 under setting [1] was 8.2 µM [falling, partial curve].

Turning to `COc1ccc(S(=O)(=O)NCC(c2ccco2)S(=O)(=O)c2ccc(C)cc2)cc1F` (stereo not drawn), the AC50 under setting [1] was 22.4 µM [falling, single point].

Take `C=CCn1c(C)cc(C(=O)Cn2ncc(Cl)c(Cl)c2=O)c1C`: the AC50 under setting [1] is 20.6 µM [falling, single point] and the AC50 under setting [2] was 16.4 µM [rising, partial curve, poor fit].

For the compound `COc1cccc(/C=C/C(=O)NNC(=O)c2cc(C)oc2C)c1`, under setting [1], the AC50 was 10.3 µM [falling, partial curve, poor fit].

In the case of `CC(C)c1ccc(C(N)=S)cc1`, the AC50 under setting [1] was 10 µM [rising, partial curve].

In the case of `c1ccc(CSc2nnc(Cc3ccccn3)o2)cc1`, under setting [1], the AC50 is 12.6 µM [rising, partial curve, poor fit].

As for `C=CCn1c(Oc2ccccc2F)nc2c1c(=O)n(C)c(=O)n2C`, the AC50 under setting [1] is 1.26 µM [falling, full curve].

Turning to `O=C1CN(c2ccccc2)C(=O)N1`, under setting [1], the AC50 was 12.6 µM [rising, partial curve, poor fit].

With `COc1ccccc1/C=N/NC(=S)Nc1cccnc1`, the half-maximal activity concentration (AC50) is, setting by setting: under setting [1], 0.562 µM [falling, full curve, poor fit]; under setting [2], 3.55 µM [falling, full curve].

Turning to `CCOC(=O)C1=C(c2ccccc2)NC(=S)NC1c1ccc(C)c([N+](=O)[O-])c1` (stereo not drawn), the AC50 under setting [1] is 29.1 µM [falling, single point].

On to `COc1ccc2nc(NC(=O)c3ccccc3F)sc2c1`, for which the AC50 under setting [1] was 3.55 µM [falling, partial curve].

On to `O=C(CN(Cc1ccco1)C(=O)c1ccc(Cl)cc1)Nc1ccc(Cl)c(Cl)c1`, for which the AC50 under setting [1] is 11.6 µM [rising, partial curve].

Consider `COC(=O)c1c(NC(=O)c2ccco2)sc(C)c1C`, for which the AC50 under setting [1] is 1.16 µM [falling, full curve].

For `COCCN(C(=O)CCCc1nc2ccccc2s1)c1c(N)n(CC(C)C)c(=O)[nH]c1=O`, under setting [1], the AC50 is 23.1 µM [rising, partial curve, poor fit].

In the case of `CCNC(=O)NC(=O)CSc1nnc(-c2c[nH]c3ccccc23)o1`, the AC50 under setting [1] is 11.2 µM [falling, single point].

For the compound `O=C1CCc2cc(S(=O)(=O)NCCC(=O)NC3CCN(Cc4ccccc4)CC3)ccc2N1`, under setting [1], the AC50 is 35.5 µM [rising, single point].

For `Cc1c(Cl)cccc1NC(=O)CC1Oc2ccccc2NC1=O` (stereo not drawn), under setting [1], the half-maximal activity concentration (AC50) is 15.8 µM [falling, single point].

Turning to `CCCCOC(=O)Nc1nc(CC(=O)OCC)cs1`, the AC50 under setting [1] is 9.2 µM [rising, partial curve].

As for `O=S(=O)(Nc1ccc2c3c(cccc13)CC2)c1ccc(F)cc1`, the AC50 under setting [1] was 20 µM [falling, partial curve, poor fit].

As to `N#Cc1c(N)nc(SCc2ccncc2)c(C#N)c1-c1cccs1`, the AC50 under setting [1] was 18.4 µM [falling, partial curve].

In the case of `COc1cc(CO)c(OC)c([N+](=O)[O-])c1`, the AC50 under setting [2] is 31.6 µM [falling, partial curve, poor fit].

Consider `CC(C)(C)C1CCC(=O)N(CCSc2ccccc2)CC1` (stereo not drawn), for which the AC50 under setting [1] is 3.55 µM [rising, partial curve, poor fit].

Consider `Cc1cc(C)n2nc(CC#N)c(C#N)c2n1`, for which the AC50 is, setting by setting: under setting [1], 2.82 µM [falling, partial curve, poor fit]; under setting [2], 3.98 µM [falling, partial curve, poor fit].

Regarding `O=Cc1ccc(N2CCCC2)c(F)c1`, under setting [1], the AC50 was 10.3 µM [falling, partial curve, poor fit].

Regarding `COc1ccccc1N1CCN(c2nc3c(C)cccn3c(=O)c2C=O)CC1`, under setting [1], the AC50 is 3.55 µM [rising, full curve, poor fit].

`CCCCn1c(-c2nn(C)cc2Cl)n[nH]c1=S`: the AC50 under setting [1] was 5.01 µM [rising, single point].

As a reminder, the AC50 is the concentration at which the activity in the assay is half-maximal.
